Experimental data reported in US20020110853A1.
No constants are given. Whether binding was seen depends on the method and setting. Some results given as binding are weak or reduced against the parent protein; the word gives no strength. Sequences can lack the tags named with a protein.

Amino acid sequences for entries named in this document (tags omitted). Residues count along the entry.
UniProt O43508, residues 94-249: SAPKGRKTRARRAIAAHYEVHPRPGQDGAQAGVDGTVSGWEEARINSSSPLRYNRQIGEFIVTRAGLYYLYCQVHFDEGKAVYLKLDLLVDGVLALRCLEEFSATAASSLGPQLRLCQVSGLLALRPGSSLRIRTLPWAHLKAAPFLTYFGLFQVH

Target: T1, TWEAKR-Flag-LeuZip2 (extracellular domain of human TWEAKR expressed in E. coli as a leucine zipper dimer fusion protein) (human) (UniProt Q9NP84)
T1 sequence: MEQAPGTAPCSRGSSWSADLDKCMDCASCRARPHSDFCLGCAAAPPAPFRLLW
Assay: ligand blot of E. coli lysate probed with TWEAK, visualized with an anti-TWEAK antibody

binding: binds
Substance: TWEAK (probe of the ligand blot of Example 2) (from UniProt O43508 94-249)
